# According to patent US10561379B2, “In vivo positron emission tomography-based perfusion/blood pool imaging using labeled erythrocytes” (H. LEE MOFFITT CANCER CENTER AND RESEARCH INSTITUTE, INC., priority 2016, dated 2020):
# System: human RBCs
# Test: Residual unincorporated FDG in washed RBC fraction, incubation supernatant and wash supernatants
# Format: cell-based
substance,measurement,setting,value
2-deoxy-2-(^18F)fluoro-D-glucose [FDG],relative % of total FDG in washed RBC fraction,500 μl RBC fraction (FIG. 14),59%±1%
same,relative % of total FDG in 1st wash supernatant,FIG. 14,3%±1%
same,relative % of total FDG in 2nd wash supernatant,FIG. 14,2%±1%
same,relative % of total FDG in 3rd wash supernatant,FIG. 14,1%±1%
same,relative % of total FDG in original supernatant (unincorporated FDG after initial incubation),FIG. 14,36%±2%
